Reference: article PMC7201057
Results are given in words; binding and its absence hold for the method and conditions named. Binding seen in cells or lysates may run through a third protein.

The chains behind the UniProt entries cited, without tags or fusion partners. Residues count along the entry.
UniProt P15311: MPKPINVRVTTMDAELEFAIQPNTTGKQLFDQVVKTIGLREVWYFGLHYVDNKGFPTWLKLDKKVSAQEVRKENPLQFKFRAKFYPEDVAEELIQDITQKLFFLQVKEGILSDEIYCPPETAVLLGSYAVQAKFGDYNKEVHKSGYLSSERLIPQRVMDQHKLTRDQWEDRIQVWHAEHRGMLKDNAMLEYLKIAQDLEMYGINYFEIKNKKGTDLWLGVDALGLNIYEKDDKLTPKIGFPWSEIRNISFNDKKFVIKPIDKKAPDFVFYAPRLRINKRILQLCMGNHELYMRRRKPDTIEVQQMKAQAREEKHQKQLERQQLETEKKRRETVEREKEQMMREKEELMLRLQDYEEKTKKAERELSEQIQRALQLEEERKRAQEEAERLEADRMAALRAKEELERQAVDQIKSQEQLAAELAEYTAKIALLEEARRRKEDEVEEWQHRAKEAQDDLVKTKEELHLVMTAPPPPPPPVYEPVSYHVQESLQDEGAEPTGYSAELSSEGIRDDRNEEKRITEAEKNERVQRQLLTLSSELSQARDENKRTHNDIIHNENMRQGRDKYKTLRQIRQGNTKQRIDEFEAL
UniProt P03522, residues 17-511: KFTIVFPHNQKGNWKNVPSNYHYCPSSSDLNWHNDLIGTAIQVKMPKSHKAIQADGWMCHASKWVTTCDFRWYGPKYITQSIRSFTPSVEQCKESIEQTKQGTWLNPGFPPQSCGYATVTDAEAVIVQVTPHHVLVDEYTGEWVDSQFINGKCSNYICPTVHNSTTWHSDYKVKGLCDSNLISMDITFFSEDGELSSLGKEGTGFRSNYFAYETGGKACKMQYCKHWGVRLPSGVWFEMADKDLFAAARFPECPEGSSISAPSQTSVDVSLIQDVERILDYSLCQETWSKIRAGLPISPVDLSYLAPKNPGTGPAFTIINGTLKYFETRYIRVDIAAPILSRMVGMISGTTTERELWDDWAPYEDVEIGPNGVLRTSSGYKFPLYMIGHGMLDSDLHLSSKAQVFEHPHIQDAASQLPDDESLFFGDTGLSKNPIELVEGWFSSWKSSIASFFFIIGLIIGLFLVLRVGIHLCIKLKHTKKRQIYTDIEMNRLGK

Molecular target: ezrin (UniProt P15311)
Assay: co-IP

For “Vesicular stomatitis virus glycoprotein (from UniProt P03522 17-511)”, the binding was “no binding”.
